Data source: PubChem BioAssay AID652243 (Drosophila RNAi Screening Center, 2013)
Screen: 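Fly regulators of androgen-dependent reporter output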 (primary screen). Cells: Drosophila S2R+ cells. Reagents: long dsRNA against Drosophila genes. Time to read-out: 72 h (48 h, then 24 h hormone). Conditions: synthetic androgen R1881 at 10 nM for 24 h. Read-out: 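Per-well raw luminescence of the androgen-driven firefly reporter and of the Renilla control, two replicates each, without normalisation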. Scale: firefly reporter light: higher = more light from androgen-responsive reporter; Renilla control light: higher = more constitutive control signal (cell number, transfection). Active means: 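Across duplicate plates, a knock-down whose log firefly/Renilla ratio shifted a set fold down or up from the GFP/LacZ control mean was a hit; the downward cut appears as both 1.5 and 3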. Meaning of the calls: active = hit: reporter lowered or raised; inactive = no hit.
In all, the deposit lists about 24,000 reagents; below is a random part of those that have a named target and a result. Over the whole deposit, 246 (1%) were called active. 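Plates not normalised; calls are printed but the firefly/Renilla ratio behind them is not deposited; fold cut for lowering reported inconsistently.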 Raw values are not corrected between plates. Entries without a mark were called inactive. Reagents against one gene are numbered here. A plus sign joins genes that one reagent is predicted to hit. Reagent sequences are not shown. Not stated in the record: the amount of reagent.

no.	gene knocked down	dsRNA no.	firefly reporter light, replicate 1	firefly reporter light, replicate 2	Renilla control light, replicate 1	Renilla control light, replicate 2
1	RecQ4	1	1.69e5	1.24e5	1.81e6	1.31e6
2	RecQ4	2	3.36e5	3.08e5	6.81e5	8.26e5
3	row	1	6.92e5	5.98e5	8.45e5	9.46e5
4	row	2	58590	61077	1.28e6	1.28e6
5	Jheh1	1	4.99e5	5.83e5	5.24e5	5.34e5
6	Jheh1	2	7.40e5	7.78e5	7.71e5	8.05e5
7	Uqcc1 + CG9948	1	1.90e5	1.62e5	1.70e6	1.46e6
8	Rac2	1	1.05e5	99678	1.12e6	1.50e6
9	Rac2	2	6.30e5	5.30e5	5.39e5	5.26e5
10	CG15484	1	3.61e5	3.36e5	3.12e6	3.06e6
11	CG15484	2	4.42e5	8.48e5	1.31e6	2.34e6
12	Cda5	1	74098	1.09e5	4.31e5	5.77e5
13	Cda5	2	1.71e5	1.21e5	6.97e5	6.43e5
14	Cda5	3	8.72e5	7.77e5	2.28e6	1.65e6
15	SIFaR	1	1.46e5	50843	2.18e5	1.82e5
16	SIFaR	2	2.97e5	2.97e5	2.98e6	3.42e6
17	icln	1	61755	78978	8.30e5	8.30e5
18	icln	2	2.57e5	3.10e5	7.53e5	7.71e5
19	CG34244	1	1.03e6	9.38e5	2.54e6	2.00e6
20	CG34286	1	6.12e5	4.92e5	2.47e6	2.66e6
21	Sp7	1	69319	90444	1.45e6	1.50e6
22	dsf	1	69951	47085	5.34e5	6.12e5
23	dsf	2	4.42e5	3.72e5	4.16e5	4.19e5
24	CG12643	1	3.81e5	4.36e5	3.77e6	3.54e6
25	CG12643	2	7.76e5	8.20e5	1.21e6	1.16e6
26	Kr-h2	1	2.28e5	2.51e5	2.16e6	1.67e6
27	CG33771	1	4.70e5	3.86e5	2.11e6	3.28e6
28	CG43373 + CG42514	1	2.54e5	3.21e5	6.06e5	6.61e5
29	CG5727	1	9.32e5	7.88e5	2.74e6	2.32e6
30	CG5727	2	3.79e5	5.56e5	7.09e5	7.09e5
31	Spn55B	1	2.88e5	2.27e5	1.50e6	1.74e6
32	Spn55B	2	6.05e5	6.49e5	1.07e6	7.02e5
33	Spn55B	3	4.84e5	3.90e5	1.09e6	5.58e5
34	CG5938	1	1.02e5	83598	3.80e5	6.45e5
35	CG5938	2	4.54e5	7.94e5	5.90e5	8.41e5
36	CG5768	1	94477	1.03e5	7.69e5	8.08e5
37	ItgaPS4	1	48607	49024	9.00e5	9.00e5
38	CG4161	1	1.55e5	1.63e5	1.62e6	1.11e6
39	CG4161	2	3.06e5	2.98e5	7.90e5	8.31e5
40	CR17024	1	3.41e5	3.02e5	1.85e6	2.41e6
